Test results reported in patent US7282339B2, “Competitive immunoassay” (Invitrogen Corporation, priority 2003, dated 2007).
Some results were stated once for a whole list of compounds, not compound by compound.

Test system: P-Tyr-100 antiphosphotyrosine monoclonal antibody
Assay: Ligand analog screening: fluorescence intensity and polarization vs P-Tyr-100 antibody concentration (Examples 22, 24)
Design: species or system mouse
Details: ligand analog bound by phosphotyrosine-binding antibody
Experimental: Solutions of test compounds (100 nM) were prepared were prepared in 50 mM Tris-HCl pH 7.5, 10 mM MgCl2, 0.01% Brij-35, 500 μM ATP, 2 mM DTT, 1 mM EGTA. 20 μl aliquots of these solutions were pipetted into the wells of a 384-well microplate. 20 μl aliquots of a serially-diluted […] stock solution of P-Tyr-100 antiphosphotyrosine monoclonal antibody (Cell Signaling Technology, Beverly, Mass.) were added to the wells. The resulting samples contained 50 nM of each ligand analog (Compounds 15, 7, 8, 9, 18 and 19) and antibody concentrations ranging from 0.8 to 500 nM. Fluorescence polarization and intensity of the samples was measured on an EnVision microplate reader (PerkinElmer Life Sciences) using excitation/emission filter settings of 480/535 nm. Increasing fluorescence polarization as a function of antibody concentration (A) provides confirmation of ligand analog binding to the antibody. […] Phosphotyrosine peptide, target ligand, (phospho-pp60 c-src (521-533); TSTEPQY*QPGENL, Bachem California, Inc. Torrance, Calif.) was then added to all samples at a concentration of 10 μM and the fluorescence intensity and polarization measurements were repeated (C, D). […] Displacement of the ligand analogs from antibody is confirmed by depolarization of fluorescence (D compared to A). […] See, FIG. 14.
Compound 12 and Compound 13 were assessed for efficacy using the methods described in Example 22. […]

O=C(NCCc1ccc(OP(=O)(O)O)cc1)c1ccc(C(=O)O)c(-c2c3cc(F)c(=O)cc-3oc3cc(O)c(F)cc23)c1 [Compound 15, Oregon Green 488 6-phosphotyramide]
reporter molecule quenched in the ligand-detection reagent: ≥ 80%

O=C(NCCc1ccc(OP(=O)(O)O)cc1)c1ccc(C(=O)O)c(-c2c3ccc(=O)cc-3oc3cc(O)ccc23)c1 [Compound 9, 6-FAM phosphotyramide]
reporter molecule quenched in the ligand-detection reagent: ≥ 80%
